# Some of the results follow.
# B1: MtEccB1 (Mycobacterium tuberculosis H37Rv), O69734 (protein)
# chain: MGLRLTTKVQVSGWRFLLRRLEHAIVRRDTRMFDDPLQFYSRSIALGIVVAVLILAGAALLAYFKPQGKLGGTSLFTDRATNQLYVLLSGQLHPVYNLTSARLVLGNPANPATVKSSELSKLPMGQTVGIPGAPYATPVSAGSTSIWTLCDTVARADSTSPVVQTAVIAMPLEIDASIDPLQSHEAVLVSYQGETWIVTTKGRHAIDLTDRALTSSMGIPVTARPTPISEGMFNALPDMGPWQLPPIPAAGAPNSLGLPDDLVIGSVFQIHTDKGPQYYVVLPDGIAQVNATTAAALRATQAHGLVAPPAMVPSLVVRIAERVYPSPLPDEPLKIVSRPQDPALCWSWQRSAGDQSPQSTVLSGRHLPISPSAMNMGIKQIHGTATVYLDGGKFVALQSPDPRYTESMYYIDPQGVRYGVPNAETAKSLGLSSPQNAPWEIVRLLVDGPVLSKDAALLEHDTLPADPSPRKVPAGASGAP
# Assays:
# Test in all cases: glycan array binding signal (z-score within array); higher = stronger binding
# Settings in all cases: glycan notation: IUPAC condensed, linker removed
# [1] = target: Gal(b1-4)GlcNAc(b1-3)Gal(b1-4)GlcNAc(b1-3)Gal(b1-4)GlcNAc
# Method in brief: (§1)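 Negative Z-scores can be read as non-binding. The Z-score is calculated within each array and then averaged across arrays of one protein sequence at different concentrations or buffers and across linkers. Arrays, 3228 in all, were curated from the Consortium for Functional Glycomics database and kept only where the protein sequence was available.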
# [2] = target: Gal(b1-4)GlcNAc(b1-3)Gal(b1-4)GlcNAc(b1-3)Gal(b1-4)GlcNAc(b1-2)Man(a1-3)[Gal(b1-4)GlcNAc(b1-3)Gal(b1-4)GlcNAc(b1-3)Gal(b1-4)GlcNAc(b1-2)Man(a1-6)]Man(b1-4)GlcNAc(b1-4)GlcNAc
# Method in brief: as §1
# [3] = target: Gal(b1-4)GlcNAc(b1-3)Gal(b1-4)GlcNAc(b1-3)Gal(b1-4)GlcNAc(b1-2)Man(a1-3)[Gal(b1-4)GlcNAc(b1-3)Gal(b1-4)GlcNAc(b1-3)Gal(b1-4)GlcNAc(b1-2)Man(a1-6)]Man(b1-4)GlcNAc(b1-4)[Fuc(a1-6)]GlcNAc
# Method in brief: as §1
# [4] = target: Gal(b1-4)GlcNAc(b1-3)Gal(b1-4)GlcNAc(b1-3)Gal(b1-4)GlcNAc(b1-2)[Gal(b1-4)GlcNAc(b1-3)Gal(b1-4)GlcNAc(b1-3)Gal(b1-4)GlcNAc(b1-6)]Man(a1-6)[Gal(b1-4)GlcNAc(b1-3)Gal(b1-4)GlcNAc(b1-3)Gal(b1-4)GlcNAc(b1-2)Man(a1-3)]Man(b1-4)GlcNAc(b1-4)[Fuc(a1-6)]GlcNAc
# Method in brief: as §1
# [5] = target: Gal(b1-4)GlcNAc(b1-3)Gal(b1-4)GlcNAc(b1-3)Gal(b1-4)GlcNAc(b1-3)Gal(b1-4)GlcNAc(b1-2)Man(a1-3)[Gal(b1-4)GlcNAc(b1-3)Gal(b1-4)GlcNAc(b1-3)Gal(b1-4)GlcNAc(b1-3)Gal(b1-4)GlcNAc(b1-2)Man(a1-6)]Man(b1-4)GlcNAc(b1-4)GlcNAc
# Method in brief: as §1
# [6] = target: Gal(b1-4)GlcNAc(b1-3)Gal(b1-4)GlcNAc(b1-3)Gal(b1-4)GlcNAc(b1-3)Gal(b1-4)GlcNAc(b1-2)Man(a1-3)[Gal(b1-4)GlcNAc(b1-3)Gal(b1-4)GlcNAc(b1-3)Gal(b1-4)GlcNAc(b1-3)Gal(b1-4)GlcNAc(b1-2)Man(a1-6)]Man(b1-4)GlcNAc(b1-4)[Fuc(a1-6)]GlcNAc
# Method in brief: as §1
# [7] = target: Gal(b1-4)GlcNAc(b1-3)Gal(b1-4)GlcNAc(b1-3)Gal(b1-4)GlcNAc(b1-3)Gal(b1-4)GlcNAc(b1-2)[Gal(b1-4)GlcNAc(b1-3)Gal(b1-4)GlcNAc(b1-3)Gal(b1-4)GlcNAc(b1-3)Gal(b1-4)GlcNAc(b1-6)]Man(a1-6)[Gal(b1-4)GlcNAc(b1-3)Gal(b1-4)GlcNAc(b1-3)Gal(b1-4)GlcNAc(b1-3)Gal(b1-4)GlcNAc(b1-2)Man(a1-3)]Man(b1-4)GlcNAc(b1-4)[Fuc(a1-6)]GlcNAc
# Method in brief: as §1
# [8] = target: Gal(b1-4)GlcNAc(b1-3)Gal(b1-4)GlcNAc(b1-3)Gal(b1-4)GlcNAc(b1-3)Gal(b1-4)GlcNAc(b1-3)Gal(b1-4)GlcNAc(b1-2)Man(a1-3)[Gal(b1-4)GlcNAc(b1-3)Gal(b1-4)GlcNAc(b1-3)Gal(b1-4)GlcNAc(b1-3)Gal(b1-4)GlcNAc(b1-3)Gal(b1-4)GlcNAc(b1-2)Man(a1-6)]Man(b1-4)GlcNAc(b1-4)GlcNAc
# Method in brief: as §1
# [9] = target: Gal(b1-4)GlcNAc(b1-3)Gal(b1-4)GlcNAc(b1-3)Gal(b1-4)GlcNAc(b1-3)Gal(b1-4)GlcNAc(b1-3)Gal(b1-4)GlcNAc(b1-2)Man(a1-3)[Gal(b1-4)GlcNAc(b1-3)Gal(b1-4)GlcNAc(b1-3)Gal(b1-4)GlcNAc(b1-3)Gal(b1-4)GlcNAc(b1-3)Gal(b1-4)GlcNAc(b1-2)Man(a1-6)]Man(b1-4)GlcNAc(b1-4)[Fuc(a1-6)]GlcNAc
# Method in brief: as §1
# [10] = target: Gal(b1-4)GlcNAc(b1-3)Gal(b1-4)GlcNAc(b1-3)Gal(b1-4)GlcNAc(b1-3)Gal(b1-4)GlcNAc(b1-3)Gal(b1-4)GlcNAc(b1-2)[Gal(b1-4)GlcNAc(b1-3)Gal(b1-4)GlcNAc(b1-3)Gal(b1-4)GlcNAc(b1-3)Gal(b1-4)GlcNAc(b1-3)Gal(b1-4)GlcNAc(b1-6)]Man(a1-6)[Gal(b1-4)GlcNAc(b1-3)Gal(b1-4)GlcNAc(b1-3)Gal(b1-4)GlcNAc(b1-3)Gal(b1-4)GlcNAc(b1-3)Gal(b1-4)GlcNAc(b1-2)Man(a1-3)]Man(b1-4)GlcNAc(b1-4)[Fuc(a1-6)]GlcNAc
# Method in brief: as §1
# [11] = target: Gal(b1-4)GlcNAc(b1-3)Gal(b1-4)GlcNAc(b1-3)Gal(b1-4)GlcNAc(b1-3)Gal(b1-4)GlcNAc(b1-3)Gal(b1-4)GlcNAc(b1-3)Gal(b1-4)GlcNAc(b1-2)Man(a1-3)[Gal(b1-4)GlcNAc(b1-3)Gal(b1-4)GlcNAc(b1-3)Gal(b1-4)GlcNAc(b1-3)Gal(b1-4)GlcNAc(b1-3)Gal(b1-4)GlcNAc(b1-3)Gal(b1-4)GlcNAc(b1-2)Man(a1-6)]Man(b1-4)GlcNAc(b1-4)GlcNAc
# Method in brief: as §1
# [12] = target: Gal(b1-4)GlcNAc(b1-3)Gal(b1-4)GlcNAc(b1-3)GalNAc
# Method in brief: as §1
# [13] = target: Gal(b1-4)GlcNAc(b1-3)Gal(b1-4)GlcNAc(b1-3)[Gal(b1-4)GlcNAc(b1-3)Gal(b1-4)GlcNAc(b1-6)]GalNAc
# Method in brief: as §1
# [14] = target: Gal(b1-4)GlcNAc(b1-3)Gal(b1-4)GlcNAc(b1-6)[Gal(b1-3)]GalNAc
# Method in brief: as §1
# [15] = target: Gal(b1-4)GlcNAc(b1-3)Gal(b1-4)[Fuc(a1-3)]GlcNAc(b1-3)Gal(b1-4)[Fuc(a1-3)]GlcNAc
# Method in brief: as §1
# [16] = target: Gal(b1-4)GlcNAc(b1-3)GalNAc
# Method in brief: as §1
# [17] = target: Gal(b1-4)GlcNAc(b1-3)[Fuc(a1-3)GlcNAc(b1-6)]Gal(b1-4)Glc
# Method in brief: as §1
# [18] = target: Gal(b1-4)GlcNAc(b1-3)[Gal(b1-4)GlcNAc(b1-6)]Gal(b1-4)GlcNAc
# Method in brief: as §1
# [19] = target: Gal(b1-4)GlcNAc(b1-3)[GlcNAc(b1-6)]Gal(b1-4)GlcNAc
# Method in brief: as §1
binder,measurement,setting,value
B1,glycan array binding signal (z-score),[1],2.06
same,glycan array binding signal (z-score),[2],0.867
same,glycan array binding signal (z-score),[3],0.884
same,glycan array binding signal (z-score),[4],1.3
same,glycan array binding signal (z-score),[5],0.021
same,glycan array binding signal (z-score),[6],1.01
same,glycan array binding signal (z-score),[7],1.93
same,glycan array binding signal (z-score),[8],0.215
same,glycan array binding signal (z-score),[9],-0.351
same,glycan array binding signal (z-score),[10],1.53
same,glycan array binding signal (z-score),[11],2.86
same,glycan array binding signal (z-score),[12],-1.19
same,glycan array binding signal (z-score),[13],-0.178
same,glycan array binding signal (z-score),[14],0.271
same,glycan array binding signal (z-score),[15],0.353
same,glycan array binding signal (z-score),[16],0.348
same,glycan array binding signal (z-score),[17],-1.02
same,glycan array binding signal (z-score),[18],-0.605
same,glycan array binding signal (z-score),[19],0.413

# Part of the list above, tab-delimited.
binder	measurement	setting	value
B1	glycan array binding signal (z-score)	[14]	0.271
same	glycan array binding signal (z-score)	[15]	0.353

# — the supplement of paper PMC8728848
